Measured values as given in patent publication US5041436A, “1-arylsulphonyl-2-piperidinone derivatives, process and intermediates for the preparation thereof, their application as antispasmodics and compositions containing them” (Roussel Uclaf, priority 1989, dated 1991).

Tested on: isolated guinea pig ileum, contractions induced by histamine
Assay: Antagonist action on contractions induced by histamine, isolated guinea pig ileum
Settings: histamine 1×10^-5 M; contact time one minute; 37° C.; read-out: Antagonist to different agents (IC50), Histam.
Experimental: The interaction of the compounds with different receptors was assessed on isolated guinea pig ileum according to the following method.
Guinea pig ileum segments measuring 2.5-3 cm were washed and immediately suspended in a bath containing 10 ml of Tyrode's solution at 37° C. aerated with a mixture of oxygen (95%) and carbon dioxide (5%). After a stabilization period of at least 30 minutes, the contractions were recorded, maintaining the preparation under constant tension of 1 g using a gauge connected to a polygraph. The agonist action was assessed by leaving the compound in contact with the isolated tissue for a period necessary for expressing the maximal contraction; the preparation was then washed with Tyrode's solution. The next dose was added to the bath only after the preparation had returned to its base line. As a reference product, arecoline was employed. The antagonist action was assessed on contractions induced by acetyl choline (1×10^-6 M), histamine (1×10^-5 M) and barium chloride (2×10^-4 M). Atropine, diphenhydramine and papaverine were emplohyed as reference products. The contact time before adding the agonist was one minute.
For each compound, the dose-response curves are obtained with 4 to 6 different concentrations and 3 to 5 independent tests. The agonist activity is expressed by pD2 (negative logarithm of the dose which produces 50% of maximum effect). […]

Structure (SMILES): CN(C)CCOC(c1ccccc1)c1ccccc1 [Diphenydramine, diphenhydramine, reference compound]
- IC50: 830 nM
